{
  "source": "paper doi:10.1101/2023.05.25.542248",
  "binders": {"B1": {"name": "mBarhl1-3xFlag-HA (mouse BarH-like 1 homeobox protein, full length) (protein, UniProt P63157 1-327)", "chain": "MEGSNGFGIDSILSHRAGSPALPKGDPLLGDCRSPLELSPRSESSSDCSSPASPGRDCLETSTSRPGAASGPGLDSHLQPGQLSAPAQSRTVTSSFLIRDILADCKPLAACAPYSSSGQPAAPEPGGRLAAKAGEDFRDKLDKSVSSASSDSEYKVKEEGDREISSSRDSPPVRLKKPRKARTAFTDHQLAQLERSFERQKYLSVQDRMELAASLNLTDTQVKTWYQNRRTKWKRQTAVGLELLAEAGNYSALQRMFPSPYFYPQSLVSNLDPGAALYLYRGPSAPPPALQRPLVPRILIHGLQGASEPPPPLPPLPGVLPRAAQPR"}},
  "target": "Myc-Tcf7l1",
  "experiment": "co-IP",
  "note": "No constants are given. Whether binding was seen depends on the method and setting. In cells and extracts the contact can be indirect. A result given as binding can be weak or reduced; the word gives no strength. Where a sequence is shown, tags or fusion partners need not be part of it.",
  "data": [
    {"binder": "B1", "values": [
      {"measurement": "binding", "value": "binds"}
    ]}
  ]
}
